{"sequences": {"note": "Amino acid sequences for entries named in this document (tags omitted). Residues count along the entry.", "UniProt P08069, residues 31-1367": "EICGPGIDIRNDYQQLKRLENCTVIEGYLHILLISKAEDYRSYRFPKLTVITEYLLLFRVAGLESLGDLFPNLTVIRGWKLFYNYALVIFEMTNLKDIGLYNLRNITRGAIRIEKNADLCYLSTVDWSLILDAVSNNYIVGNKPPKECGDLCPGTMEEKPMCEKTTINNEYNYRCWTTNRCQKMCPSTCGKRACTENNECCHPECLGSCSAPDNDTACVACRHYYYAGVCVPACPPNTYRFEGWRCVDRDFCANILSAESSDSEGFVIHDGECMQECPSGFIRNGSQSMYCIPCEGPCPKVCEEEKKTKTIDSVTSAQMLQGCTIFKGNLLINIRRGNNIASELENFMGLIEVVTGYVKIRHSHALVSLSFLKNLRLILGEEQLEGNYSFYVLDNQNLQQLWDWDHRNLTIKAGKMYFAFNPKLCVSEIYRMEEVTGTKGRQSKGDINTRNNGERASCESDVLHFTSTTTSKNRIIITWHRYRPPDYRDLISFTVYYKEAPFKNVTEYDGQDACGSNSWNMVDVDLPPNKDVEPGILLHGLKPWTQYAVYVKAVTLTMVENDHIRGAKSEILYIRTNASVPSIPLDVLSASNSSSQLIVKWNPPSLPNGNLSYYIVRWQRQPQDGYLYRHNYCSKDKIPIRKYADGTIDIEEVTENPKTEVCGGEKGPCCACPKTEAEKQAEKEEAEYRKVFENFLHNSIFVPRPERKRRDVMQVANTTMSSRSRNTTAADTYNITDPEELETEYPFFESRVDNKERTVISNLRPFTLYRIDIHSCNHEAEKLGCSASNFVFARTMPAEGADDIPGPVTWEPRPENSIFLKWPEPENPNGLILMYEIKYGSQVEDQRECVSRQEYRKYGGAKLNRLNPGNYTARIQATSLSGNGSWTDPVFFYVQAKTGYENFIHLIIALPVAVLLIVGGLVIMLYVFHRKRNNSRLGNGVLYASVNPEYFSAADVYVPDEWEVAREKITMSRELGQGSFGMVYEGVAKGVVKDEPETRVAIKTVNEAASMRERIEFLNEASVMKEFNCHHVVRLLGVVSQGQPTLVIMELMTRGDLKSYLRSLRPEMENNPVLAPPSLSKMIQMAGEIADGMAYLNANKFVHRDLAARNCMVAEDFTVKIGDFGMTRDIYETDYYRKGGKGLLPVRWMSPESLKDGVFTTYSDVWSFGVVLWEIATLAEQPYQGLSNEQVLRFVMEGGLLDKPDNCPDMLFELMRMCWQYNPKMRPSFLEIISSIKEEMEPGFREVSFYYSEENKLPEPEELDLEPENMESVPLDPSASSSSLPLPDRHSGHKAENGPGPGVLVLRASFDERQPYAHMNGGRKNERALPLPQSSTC"}, "source": "paper PMC9525121", "molecules": {"B1": {"name": "HA-tagged GIGYF1 (full-length) (protein, UniProt O75420 1-1035)", "chain": "MAAETLNFGPEWLRALSGGGSVASPPPSPAMPKYKLADYRYGREEMLALYVKENKVPEELQDKEFAAVLQDEPLQPLALEPLTEEEQRNFSLSVNSVAVLRLMGKGAGPPLAGTSRGRGSTRSRGRGRGDSCFYQRSIEEGDGAFGRSPREIQRSQSWDDRGERRFEKSARRDGARCGFEEGGAGPRKEHARSDSENWRSLREEQEEEEEGSWRLGAGPRRDGDRWRSASPDGGPRSAGWREHGERRRKFEFDLRGDRGGCGEEEGRGGGGSSHLRRCRAPEGFEEDKDGLPEWCLDDEDEEMGTFDASGAFLPLKKGPKEPIPEEQELDFQGLEEEEEPSEGLEEEGPEAGGKELTPLPPQEEKSSSPSPLPTLGPLWGTNGDGDETAEKEPPAAEDDIRGIQLSPGVGSSAGPPGDLEDDEGLKHLQQEAEKLVASLQDSSLEEEQFTAAMQTQGLRHSAAATALPLSHGAARKWFYKDPQGEIQGPFTTQEMAEWFQAGYFSMSLLVKRGCDEGFQPLGEVIKMWGRVPFAPGPSPPPLLGNMDQERLKKQQELAAAALYQQLQHQQFLQLVSSRQLPQCALREKAALGDLTPPPPPPPQQQQQQLTAFLQQLQALKPPRGGDQNLLPTMSRSLSVPDSGRLWDVHTSASSQSGGEASLWDIPINSSTQGPILEQLQLQHKFQERREVELRAKREEEERKRREEKRRQQQQEEQKRRQEEEELFRRKHVRQQELLLKLLQQQQAVPVPPAPSSPPPLWAGLAKQGLSMKTLLELQLEGERQLHKQPPPREPARAQAPNHRVQLGGLGTAPLNQWVSEAGPLWGGPDKSGGGSSGLGLWEDTPKSGGSLVRGLGLKNSRSSPSLSDSYSHLSGRPIRKKTEEEEKLLKLLQGIPRPQDGFTQWCEQMLHTLSATGSLDVPMAVAILKEVESPYDVHDYIRSCLGDTLEAKEFAKQFLERRAKQKASQQRQQQQEAWLSSASLQTAFQANHSTKLGPGEGSKAKRRALMLHSDPSILGYSLHGSSGEIESVDDY"}}, "key": {"[1]": {"molecular_target": "T1, HA-tagged GIGYF1 (full-length) (UniProt O75420)", "T1 sequence": "B1 chain", "assay": "co-IP; HEK293T cells cotransfected with HA-GIGYF1 and 3xFlag-IGF-1R, lysed after 24 hours in NP40 lysis buffer; supernatants incubated with anti-HA or anti-Flag immunomagnetic beads overnight at 4°C, washed with PBST 3 times, detected by Western blotting"}, "Flag-tagged IGF-1R": {"molecular_target": "Flag-tagged IGF-1R (UniProt P08069)", "assay": "co-IP; HEK293T cells cotransfected with HA-GIGYF1 and 3xFlag-IGF-1R, lysed after 24 hours in NP40 lysis buffer; supernatants incubated with anti-HA or anti-Flag immunomagnetic beads overnight at 4°C, washed with PBST 3 times, detected by Western blotting"}}, "note": "These are yes or no findings as the source states them, for the method shown. In cells and extracts the contact can be indirect. Some results given as binding are weak or reduced against the parent protein; the word gives no strength. Where a sequence is shown, tags or fusion partners need not be part of it.", "data": [{"molecule": "Flag-tagged IGF-1R (from UniProt P08069 31-1367) (receptor)", "values": [{"measurement": "binding", "setting": "[1]", "result": "binds"}]}, {"molecule": "B1", "values": [{"measurement": "binding", "setting": "Flag-tagged IGF-1R", "result": "binds"}]}]}
